Measured values taken from the supplement of paper PMC4604168 (melanoma cell lines).
Some of the results follow. Many values rest on one well or one pass, so single values are uncertain.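 The apoptosis fraction was the count of cleaved-PARP antibody-stained nuclei relative to all DNA-stained nuclei, imaged in 1,536-well plates. Screening doses were set so most cells survived, and baseline and induced cleaved-PARP levels vary greatly across cell lines.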

Tests used:
Test in all cases: cleaved PARP positive nuclei fraction relative to DMSO control; melanoma cells; higher = more apoptosis
Conditions in all cases: library dose: low library concentration; 72 h
[1] = tested on: 501Mel
[2] = tested on: A101D
[3] = tested on: A2058
[4] = tested on: A375
[5] = tested on: C32
[6] = tested on: CBRC008 (line from a melanoma biopsy)
[7] = tested on: CBRC014 (line from a melanoma biopsy)
[8] = tested on: CBRC016 (line from a melanoma biopsy)
[9] = tested on: CBRC017 (line from a melanoma biopsy)

| SMILES | cleaved PARP positive nuclei fraction [1] [%] | cleaved PARP positive nuclei fraction [2] [%] | cleaved PARP positive nuclei fraction [3] [%] | cleaved PARP positive nuclei fraction [4] [%] | cleaved PARP positive nuclei fraction [5] [%] | cleaved PARP positive nuclei fraction [6] [%] | cleaved PARP positive nuclei fraction [7] [%] | cleaved PARP positive nuclei fraction [8] [%] | cleaved PARP positive nuclei fraction [9] [%] |
| --- | --- | --- | --- | --- | --- | --- | --- | --- | --- |
| COc1cc([C@@H]2c3cc4c(cc3[C@@H](O[C@@H]3O[C@@H]5CO[C@@H](C)O[C@H]5[C@H](O)[C@H]3O)[C@H]3COC(=O)[C@H]23)OCO4)cc(OC)c1O [etoposide] + COc1ccc(Cl)c(Nc2nc3ccccc3nc2NS(=O)(=O)c2cccc(NC(=O)C(C)(C)N)c2)c1 [XL147] (first compound 0.02 µM, partner dose 0.8 µM) | 182 | 87.8 | 82 | 95.1 | 66.5 | 247 | 123 | 161 | 99.7 |
| O=C(/C=C/c1cccnc1)NCCCCC1CCN(C(=O)c2ccccc2)CC1 + C[C@@H](N)c1ccc(C(=O)Nc2ccnc3[nH]ccc23)cc1 [RKI983] (first compound 0.01 µM, partner dose 0.4 µM) | 115 | 117 | 118 | 224 | 94.8 | 8500 | 104 | 932 | 628 |
| CC[C@]1(O)C[C@H]2CN(CCc3c([nH]c4ccccc34)[C@@](C(=O)OC)(c3cc4c(cc3OC)N(C=O)[C@H]3[C@@](O)(C(=O)OC)[C@H](OC(C)=O)[C@]5(CC)C=CCN6CC[C@]43[C@@H]65)C2)C1 [vincristine] + C=CCNC1=C2C[C@@H](C)C[C@H](OC)[C@H](O)[C@@H](C)/C=C(\C)[C@H](OC(N)=O)[C@@H](OC)/C=C\C=C(/C)C(=O)NC(=CC1=O)C2=O [Tanespimycin] (first compound 0.0001 µM, partner dose 0.002 µM) | 93 | 74.9 | 378 | 139 | 124 | 195 | 104 | 75 | 146 |
| CCCCCCCCCCCCCCCCCCOP(=O)([O-])OC1CC[N+](C)(C)CC1 [Perifosine] + C=CCNC1=C2C[C@@H](C)C[C@H](OC)[C@H](O)[C@@H](C)/C=C(\C)[C@H](OC(N)=O)[C@@H](OC)/C=C\C=C(/C)C(=O)NC(=CC1=O)C2=O [Tanespimycin] (first compound 0.4 µM, partner dose 0.002 µM) | 33.1 | 74.1 | 64 | 223 | 105 | 27.6 | 102 | 139 | 88.2 |
| CC[C@]1(O)C[C@H]2CN(CCc3c([nH]c4ccccc34)[C@@](C(=O)OC)(c3cc4c(cc3OC)N(C=O)[C@H]3[C@@](O)(C(=O)OC)[C@H](OC(C)=O)[C@]5(CC)C=CCN6CC[C@]43[C@@H]65)C2)C1 [vincristine] + O=c1[nH]nc(Sc2ncc([N+](=O)[O-])s2)n1-c1ccc2c(c1)OCCO2 [BI78D3] (first compound 0.0001 µM, partner dose 0.2 µM) | 77 | 60.9 | 984 | 202 | 204 | 194 | 109 | 74.6 | 176 |
| Cc1cc(Nc2cc(N3CCN(C)CC3)nc(Sc3ccc(NC(=O)C4CC4)cc3)n2)n[nH]1 [Tozasertib] + CC1(C)CCC(c2ccc(Cl)cc2)=C(CN2CCN(c3ccc(C(=O)NS(=O)(=O)c4ccc(N[C@H](CCN5CCOCC5)CSc5ccccc5)c(S(=O)(=O)C(F)(F)F)c4)cc3)CC2)C1 [ABT263] (first compound 0.006 µM, partner dose 0.4 µM) | 219 | 107 | 49.7 | 238 | 881 | 258 | 929 | 170 | 366 |
| COc1cc([C@@H]2c3cc4c(cc3[C@@H](O[C@@H]3O[C@@H]5CO[C@@H](C)O[C@H]5[C@H](O)[C@H]3O)[C@H]3COC(=O)[C@H]23)OCO4)cc(OC)c1O [etoposide] + C=C(c1ccc(C(=O)O)cc1)c1cc2c(cc1C)C(C)(C)CCC2(C)C [Bexarotene] (first compound 0.02 µM, partner dose 2 µM) | 188 | 82.5 | 163 | 26 | 76.4 | 103 | 102 | 146 | 147 |
| N#CC[C@H](C1CCCC1)n1cc(-c2ncnc3[nH]ccc23)cn1 [ruxolitinib] + Cc1cc(Nc2cc(N3CCN(C)CC3)nc(/C=C/c3ccccc3)n2)n[nH]1 [ENMD2076] (first compound 1 µM, partner dose 0.04 µM) | 100 | 134 | 138 | 37.8 | 81.1 | 127 | 95.8 | 58 | 81.3 |
| Cc1ccc(Nc2nccc(N(C)c3ccc4c(C)n(C)nc4c3)n2)cc1S(N)(=O)=O [Pazopanib] + CS(=O)(=O)c1ccc(C(=O)Nc2ccc(Cl)c(-c3ccccn3)c2)c(Cl)c1 [vismodegib] (first compound 0.4 µM, partner dose 1 µM) | 90.4 | 96.2 | 20.4 | 251 | 70.3 | 107 | 114 | 95.1 | 112 |
| O=C(Nc1cc(C(F)(F)F)cc(C(F)(F)F)c1)c1cc(Cl)ccc1O + COc1ccc(C2=N[C@@H](c3ccc(Cl)cc3)[C@@H](c3ccc(Cl)cc3)N2C(=O)N2CCNC(=O)C2)c(OC(C)C)c1 [Nutlin-3] (first compound 0.016 µM, partner dose 0.1 µM) | 90.5 | 89.4 | 170 | 129 | 72.2 | 50.2 | 109 | 52.2 | 99.6 |
| N#CC[C@H](C1CCCC1)n1cc(-c2ncnc3[nH]ccc23)cn1 [ruxolitinib] + O=C(O)c1ccc2c(c1)nc(Nc1cccc(Cl)c1)c1ccncc12 [CX4945] (first compound 1 µM, partner dose 0.4 µM) | 66.2 | 104 | 106 | 81.6 | 151 | 250 | 120 | 391 | 244 |
| CC[C@]1(O)C[C@H]2CN(CCc3c([nH]c4ccccc34)[C@@](C(=O)OC)(c3cc4c(cc3OC)N(C=O)[C@H]3[C@@](O)(C(=O)OC)[C@H](OC(C)=O)[C@]5(CC)C=CCN6CC[C@]43[C@@H]65)C2)C1 [vincristine] + CC1(C)CCC(c2ccc(Cl)cc2)=C(CN2CCN(c3ccc(C(=O)NS(=O)(=O)c4ccc(N[C@H](CCN5CCOCC5)CSc5ccccc5)c(S(=O)(=O)C(F)(F)F)c4)cc3)CC2)C1 [ABT263] (first compound 0.0001 µM, partner dose 0.4 µM) | 83.4 | 222 | 103 | 316 | 707 | 421 | 235 | 322 | 289 |
| Cc1ccc(Nc2nccc(N(C)c3ccc4c(C)n(C)nc4c3)n2)cc1S(N)(=O)=O [Pazopanib] + CNC(=O)c1cc(Oc2ccc(NC(=O)Nc3ccc(Cl)c(C(F)(F)F)c3)cc2)ccn1 [sorafenib] (first compound 0.4 µM, partner dose 0.4 µM) | 88.7 | 145 | 123 | 119 | 233 | 169 | 103 | 685 | 244 |
| N#CC[C@H](C1CCCC1)n1cc(-c2ncnc3[nH]ccc23)cn1 [ruxolitinib] + CC(C)C[C@H](NC(=O)[C@H](Cc1ccccc1)NC(=O)c1cnccn1)B(O)O [Bortezomib] (first compound 1 µM, partner dose 0.001 µM) | 99.3 | 274 | 107 | 71.6 | 78 | 362 | 130 | 114 | 137 |
| N#CC[C@H](C1CCCC1)n1cc(-c2ncnc3[nH]ccc23)cn1 [ruxolitinib] + Cc1cn(-c2cc(NC(=O)c3ccc(C)c(Nc4nccc(-c5cccnc5)n4)c3)cc(C(F)(F)F)c2)cn1 [nilotinib] (first compound 1 µM, partner dose 0.2 µM) | 62.7 | 41.8 | 171 | 98.8 | 69.6 | 94.1 | 99.2 | 90.3 | 268 |
| Cc1cc(Nc2cc(N3CCN(C)CC3)nc(Sc3ccc(NC(=O)C4CC4)cc3)n2)n[nH]1 [Tozasertib] + C=CCNC1=C2C[C@@H](C)C[C@H](OC)[C@H](O)[C@@H](C)/C=C(\C)[C@H](OC(N)=O)[C@@H](OC)/C=C\C=C(/C)C(=O)NC(=CC1=O)C2=O [Tanespimycin] (first compound 0.006 µM, partner dose 0.002 µM) | 78.8 | 75 | 73.1 | 143 | 189 | 37.4 | 112 | 88 | 106 |
| CCCCCCCCCCCCCCCCCCOP(=O)([O-])OC1CC[N+](C)(C)CC1 [Perifosine] + COc1ccc(C2=N[C@@H](c3ccc(Cl)cc3)[C@@H](c3ccc(Cl)cc3)N2C(=O)N2CCNC(=O)C2)c(OC(C)C)c1 [Nutlin-3] (first compound 0.4 µM, partner dose 0.1 µM) | 65 | 66.1 | 50.3 | 268 | 71.7 | 120 | 77.1 | 82 | 130 |
| Cc1ccc(Nc2nccc(N(C)c3ccc4c(C)n(C)nc4c3)n2)cc1S(N)(=O)=O [Pazopanib] + O=C(O)c1ccc2c(c1)nc(Nc1cccc(Cl)c1)c1ccncc12 [CX4945] (first compound 0.4 µM, partner dose 0.4 µM) | 84.1 | 268 | 114 | 200 | 65.1 | 122 | 104 | 161 | 161 |
| COc1cc([C@@H]2c3cc4c(cc3[C@@H](O[C@@H]3O[C@@H]5CO[C@@H](C)O[C@H]5[C@H](O)[C@H]3O)[C@H]3COC(=O)[C@H]23)OCO4)cc(OC)c1O [etoposide] + COc1ccc(C2=N[C@@H](c3ccc(Cl)cc3)[C@@H](c3ccc(Cl)cc3)N2C(=O)N2CCNC(=O)C2)c(OC(C)C)c1 [Nutlin-3] (first compound 0.02 µM, partner dose 0.1 µM) | 113 | 195 | 52.8 | 50 | 86 | 44 | 98.5 | 79.2 | 125 |
| Cc1cn(-c2cc(NC(=O)c3ccc(C)c(Nc4nccc(-c5cccnc5)n4)c3)cc(C(F)(F)F)c2)cn1 [nilotinib] + CS(=O)(=O)c1ccc(C(=O)Nc2ccc(Cl)c(-c3ccccn3)c2)c(Cl)c1 [vismodegib] (first compound 0.2 µM, partner dose 1 µM) | 102 | 139 | 151 | 98.1 | 237 | 71.3 | 159 | 175 | 81.5 |

For convenience, part of the list above:

| SMILES | cleaved PARP positive nuclei fraction [1] [%] | cleaved PARP positive nuclei fraction [2] [%] | cleaved PARP positive nuclei fraction [3] [%] | cleaved PARP positive nuclei fraction [4] [%] | cleaved PARP positive nuclei fraction [5] [%] | cleaved PARP positive nuclei fraction [6] [%] | cleaved PARP positive nuclei fraction [7] [%] | cleaved PARP positive nuclei fraction [8] [%] | cleaved PARP positive nuclei fraction [9] [%] |
| --- | --- | --- | --- | --- | --- | --- | --- | --- | --- |
| Cc1ccc(Nc2nccc(N(C)c3ccc4c(C)n(C)nc4c3)n2)cc1S(N)(=O)=O [Pazopanib] + CNC(=O)c1cc(Oc2ccc(NC(=O)Nc3ccc(Cl)c(C(F)(F)F)c3)cc2)ccn1 [sorafenib] (first compound 0.4 µM, partner dose 0.4 µM) | 88.7 | 145 | 123 | 119 | 233 | 169 | 103 | 685 | 244 |
| N#CC[C@H](C1CCCC1)n1cc(-c2ncnc3[nH]ccc23)cn1 [ruxolitinib] + CC(C)C[C@H](NC(=O)[C@H](Cc1ccccc1)NC(=O)c1cnccn1)B(O)O [Bortezomib] (first compound 1 µM, partner dose 0.001 µM) | 99.3 | 274 | 107 | 71.6 | 78 | 362 | 130 | 114 | 137 |
